In patent US9091696B2, “Modulation of NR2F6 and methods and uses thereof” (Regen Biopharma, Inc., priority 2008, dated 2015):
At least one compound was matched to its structure with a doubt left.

Experiments:
Type in all cases: cell-based
[1] = molecular target: T1, ligand binding domain (LBD) of NR2F6 fused to a GAL4 DNA binding domain (DBD) (Homo sapiens, UniProt P10588); experiment: GAL4 UAS luciferase reporter screen for modulators of NR2F6 transactivation; settings: GAL4-NR2F6 LBD chimera, luc2P reporter under nine GAL4 UAS repeats; FIG. 55
T1 construct: expressed in transfected cells
T1 sequence (P10588 165-393 limits assumed): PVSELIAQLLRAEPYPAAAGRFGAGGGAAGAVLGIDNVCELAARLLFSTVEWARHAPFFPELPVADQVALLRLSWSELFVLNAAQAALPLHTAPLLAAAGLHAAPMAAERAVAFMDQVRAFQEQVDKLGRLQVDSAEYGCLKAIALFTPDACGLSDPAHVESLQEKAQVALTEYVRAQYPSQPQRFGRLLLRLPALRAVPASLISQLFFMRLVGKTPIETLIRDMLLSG

[2] = system: NB4 human leukemia cell line; experiment: Leukemia cell viability / cell death; settings: 70 microM, FIG. 56
[3] = system: HL60 human leukemia cell line; experiment: Apoptosis detected by Annexin V staining; settings: 70 microM, FIG. 57
[4] = system: HL60 human leukemia cell line; experiment: Leukemia cell viability / cell death; settings: 70 microM, FIG. 56
[5] = system: NB4 human leukemia cell line; experiment: Apoptosis detected by Annexin V staining; settings: 70 microM, FIG. 57

Cc1c(C)c2c(c(C)c1O)CCC(C)(COc1ccc(CC3SC(=O)NC3=O)cc1)O2 (centres unmarked) [troglitazone]
modulation of the transactivation ability / function of NR2F6 (luciferase activity) [1]: modulating NR2F6 function
cell death (decrease in leukemia cell viability) [2]: induces cell death
apoptosis (Annexin V staining) [3]: induces apoptosis
cell death (decrease in leukemia cell viability) [4]: induces cell death
apoptosis (Annexin V staining) [5]: induces apoptosis
